Some entries share one result that the patent states for a list of compounds.
Experiments:
Test in all cases: greenhouse experiment, post-emergence treatment
Format in all cases: in vivo
Settings in all cases: application rate of 16 g/ha, post-emergence method; scale from 0 to 100
Setaria viridis = test system: Setaria viridis
Chenopodium album = test system: Chenopodium album
Amaranthus retroflexus = test system: Amaranthus retroflexus

| Compound | herbicidal activity against Setaria viridis (Setaria viridis) | herbicidal activity against Chenopodium album (Chenopodium album) | herbicidal activity against Amaranthus retroflexus (Amaranthus retroflexus) |
| --- | --- | --- | --- |
| COC(Oc1cc(-c2ncc(C(F)(F)F)cc2Cl)c(F)cc1Cl)C(=O)OC1CC1 (stereo not drawn) [Example 61] | very good herbicidal activity (a very good herbicidal activity is given at values of at least 85) | very good herbicidal activity (a very good herbicidal activity is given at values of at least 85) | very good herbicidal activity (a very good herbicidal activity is given at values of at least 85) |
| COC(Oc1cc(-c2ncc(C(F)(F)F)cc2Cl)c(F)cc1Cl)C(=O)OC1CCCCC1 (stereo not drawn) [Example 62] | very good herbicidal activity (a very good herbicidal activity is given at values of at least 85) | very good herbicidal activity (a very good herbicidal activity is given at values of at least 85) | very good herbicidal activity (a very good herbicidal activity is given at values of at least 85) |
| COC(Oc1cc(-c2ncc(C(F)(F)F)cc2Cl)c(F)cc1Cl)C(=O)OC1CCCC1 (stereo not drawn) [Example 63] | very good herbicidal activity (a very good herbicidal activity is given at values of at least 85) | very good herbicidal activity (a very good herbicidal activity is given at values of at least 85) | very good herbicidal activity (a very good herbicidal activity is given at values of at least 85) |
| COC(Oc1cc(-c2ncc(C(F)(F)F)cc2Cl)c(F)cc1Cl)C(=O)OC(C)C (stereo not drawn) [Example 64] | very good herbicidal activity (a very good herbicidal activity is given at values of at least 85) | very good herbicidal activity (a very good herbicidal activity is given at values of at least 85) | very good herbicidal activity (a very good herbicidal activity is given at values of at least 85) |
| COC(Oc1cc(-c2ncc(C(F)(F)F)cc2Cl)c(F)cc1Cl)C(N)=O (stereo not drawn) [Example 65] | very good herbicidal activity (a very good herbicidal activity is given at values of at least 85) | very good herbicidal activity (a very good herbicidal activity is given at values of at least 85) | very good herbicidal activity (a very good herbicidal activity is given at values of at least 85) |
| COC(Oc1cc(-c2ncc(C(F)(F)F)cc2Cl)c(F)cc1Cl)C(=O)OCC(=O)OC(C)C (stereo not drawn) [Example 66] | very good herbicidal activity (a very good herbicidal activity is given at values of at least 85) | very good herbicidal activity (a very good herbicidal activity is given at values of at least 85) | very good herbicidal activity (a very good herbicidal activity is given at values of at least 85) |
| CCOC(=O)COC(=O)C(OC)Oc1cc(-c2ncc(C(F)(F)F)cc2Cl)c(F)cc1Cl (stereo not drawn) [Example 67] | very good herbicidal activity (a very good herbicidal activity is given at values of at least 85) | very good herbicidal activity (a very good herbicidal activity is given at values of at least 85) | very good herbicidal activity (a very good herbicidal activity is given at values of at least 85) |
| COC(Oc1cc(-c2ncc(C(F)(F)F)cc2Cl)c(F)cc1Cl)C(=O)OCC(C)C (stereo not drawn) [Example 68] | very good herbicidal activity (a very good herbicidal activity is given at values of at least 85) | very good herbicidal activity (a very good herbicidal activity is given at values of at least 85) | very good herbicidal activity (a very good herbicidal activity is given at values of at least 85) |
| COC(Oc1cc(-c2ncc(C(F)(F)F)cc2Cl)c(F)cc1Cl)C(=O)N(C)C (stereo not drawn) [Example 72] | very good herbicidal activity (a very good herbicidal activity is given at values of at least 85) | very good herbicidal activity (a very good herbicidal activity is given at values of at least 85) | very good herbicidal activity (a very good herbicidal activity is given at values of at least 85) |
| COC(Oc1cc(-c2ncc(C(F)(F)F)cc2Cl)c(F)cc1Cl)C(=O)OC1COC1 (stereo not drawn) [Example 74] | very good herbicidal activity (a very good herbicidal activity is given at values of at least 85) | very good herbicidal activity (a very good herbicidal activity is given at values of at least 85) | very good herbicidal activity (a very good herbicidal activity is given at values of at least 85) |
| COC(=O)C(OC)Oc1cc(-c2ncc(C(F)(F)F)cc2Cl)c(F)cc1C#N (stereo not drawn) [Example 75] | very good herbicidal activity (a very good herbicidal activity is given at values of at least 85) | very good herbicidal activity (a very good herbicidal activity is given at values of at least 85) | very good herbicidal activity (a very good herbicidal activity is given at values of at least 85) |

From patent US10221137B2, “Herbicidal phenylpyridines” (BASF SE, priority 2015, dated 2019)
